Values quoted from earlier work in US9187507B2 (Institute of Pharmacology and Toxicology Academy of …, priority 2009, dated 2015).
Some results were stated once for a whole list of compounds, not compound by compound.

Details: literature value (Kamiya et al.); read-out: cytotoxicity CC50; cited from earlier work

| SMILES | CC50 |
| --- | --- |
| COc1ccc(Sc2nc(N)nc3c2ncn3CCOCP(=O)(O)O)cc1 [Compound 602076, 2-amino-6-(4-methoxyphenylthio)-9-(2-phosphonomethoxyethyl)-purine] | > 1 mM |
| COc1ccc(Sc2nc(N)nc3c2ncn3CCOCP(=O)(OCC(F)(F)F)OCC(F)(F)F)cc1 [MCC-478] | > 1 mM |
